Reference: US20230332232A1, “COMPOSITIONS AND METHODS FOR DIAGNOSING AND TREATING A DYSTONIA” (Duke University, priority 2020, published 2023)
At least one compound was matched to its structure with a doubt left.

System: wild-type (WT) murine embryonic fibroblasts (MEFs)
Test: Untargeted LC/MS/MS proteomics of EVs from WT MEFs exposed 24 hours to drug, compared with untreated WT MEFs
Format: cell-based, mouse
Description: Methods for isolation and purification of exosomes and extracellular vesicles (EV) were extensively reviewed. Experiments were performed to arrive at a robust and reproducible protocol. The protocol used herein is that set forth in Théry et al, 2006, which is incorporated by reference for it teaching of this protocol. This protocol involves depleting serum-derived EVs from cell culture media by overnight ultracentrifugation and exchanging media for 1% FBS EV-depleted media. Media is then collected from cells following a 24-hour conditioning period and EVs are isolated by 18-hour ultracentrifugation at 100,000 g (FIG. 1A).
EVs were isolated from media of cultured murine embryonic fibroblasts (MEFs) prepared in-house according to protocols described by Xu 2005 from DYT1 knockin mice (Tor1a^delGAG/+) (Goodchild R E, et al. (2005) Neuron. 48:923-932) and littermate wild-type (WT) controls. The cultured MEFs from the DYT1 mice were exposed for 24 hours to Ritonavir (RTV) while the MEFs from WT mice were exposed to vehicle, ISRIB, or Salubrinal (SAL). The EVs isolated from these WT cells and DYT1 were characterized by untargeted proteomics and RNA-seq to identify differentially expressed proteins and RNAs as candidate biomarkers. Experimenter and Proteomics core staff were blinded to genotype of cell cultures throughout preparation and analysis phases. EV isolation was confirmed by Western immunoblot documenting presence of the exosomal marker (TSG101) and absence of the endoplasmic reticulum (ER) marker (CANX) (FIG. 1B (Cohort 1) and FIG. 1C (Cohort 2)).
Following the bicinchoninic acid assay (BCA) analysis and Western immunoblot of a portion of samples for QC, 11.6 μg-129.2 μg of EV protein lysates in RIPA buffer were sent to the Duke Proteomics and Metabolomics Shared Resource core facility for LC/MS/MS quantitative proteomic analysis. Samples were first normalized to 20 μg and spiked with undigested casein at a total of 40 fmol/μg, 80 fmol/μg, or 160 fmol/μg, then reduced with 10 mM dithiolthreitol for 30 minute at 80° C. and alkylated with 20 mM iodoacetamide for 30 minutes at room temperature. Next, the samples were supplemented with a final concentration of 1.2% phosphoric acid and 741 μL of S-Trap (Protifi) binding buffer (90% MeOH/100 mM […]). Proteins were trapped on the S-Trap, digested using 20 ng/μL sequencing grade trypsin (Promega) for 1 hour at 47° C., and eluted using 50 mM TEAB, followed by 0.2% FA, and lastly using 50% CAN/0.2% FA. All samples were then lyophilized to dryness and resuspended in 40 μL 1% TFA/2% acetonitrile containing 12.5 fmol/μL yeast alcohol dehydrogenase (ADH_YEAST). A QC Pool was created from 3 uL of each sample. All QC Pools were run periodically throughout the acquisition period.
Quantitative LC/MS/MS was performed on 2 μL of each sample, using a nanoAcquity UPLC system (Waters Corp) coupled to a Thermo Orbitrap Fusion Lumos high resolution accurate mass tandem mass spectrometer (Thermo) via a nanoelectrospray ionization source. Briefly, the sample was first trapped on a Symmetry C18 20 mm×180 μm trapping column (5 μL/min at 99.9/0.1 v/v water/acetonitrile), after which the analytical separation was performed using a 1.8 μm Acquity HSS T3 C18 75 μm×250 mm column (Waters Corp.) with a 90 minute linear gradient of 5% to 30% acetonitrile with 0.1% formic acid at a flow rate of 400 nanoliters/minute (nL/min) with a column temperature of 55° C. Data collection on the Fusion Lumos mass spectrometer was performed in a data-dependent acquisition (DDA) mode of acquisition with a r=120,000 (@ m/z 200) full MS scan from m/z 375-1500 with a target AGC value of 2e5 ions. MS/MS scans were acquired at Rapid scan rate (Ion Trap) with an AGC target of 5e3 ions and a max injection time of 100 ms. The total cycle time for MS and MS/MS scans was 2 seconds. A 20 second dynamic exclusion was employed to increase depth of coverage. The total analysis cycle time for each sample injection was approximately 2 hours. […]

Measured: ISRIB Direction Same as dE?

O=C(COc1ccc(Cl)cc1)NC1CCC(NC(=O)COc2ccc(Cl)cc2)CC1 (stereo not drawn) [ISRIB]
NO: EV protein Cnn3 (Q9DAW9) | EV protein Cryab (P23927) | EV protein Cxadr (P97792) | EV protein D3YXG0 | EV protein Esyt1 (Q3U7R1) | EV protein Fus (P56959) | EV protein Gsto1 (Q09131) | EV protein Hnrnph1 (Q35737) | EV protein Impa1 (Q55023) | EV protein Ipo7 (Q9EPL8) | EV protein Itgb3 (Q54890) | EV protein Mdk (P12025) | EV protein Myo18a | EV protein Nrbp1 (Q99J45) | EV protein P61089, Ubiquitin-conjugating enzyme | EV protein Pdia4 (P08003) | EV protein Penk (P22005) | EV protein Pld3 (Q35405) | EV protein Pura (P42669) | EV protein Q6X893, Choline transporter-like protein 1 | EV protein Q8BL97, Serine arginine-rich splicing factor 7 | EV protein Q9FS30, Complement C1q tumor necrosis factor-related protein 3 | EV protein Q9Z1Z0, General vesicular transport factor p115 | EV protein Q78ZA7, Nucelosome assembly protein 1-like 4 | EV protein Q60751, Insulin-like growth factor 1 receptor | EV protein Rab6a (P35279) | EV protein Rpl22 (P67984) | EV protein S100a11 (P50543) | EV protein Scarb2 (Q35114) | EV protein Ssb (P32067) | EV protein Svep1 (A2A0A0) | EV protein Tra2b (P62996) | EV protein Vapa (Q9WV55)
